Measurements: the supplement of paper PMC10849652
This is one part of the list.

Protein sequences, listed by entry. Tags and fused reporters are not part of them. Lines headed by an entry give the natural chain unless they say otherwise; changes in a name come on top.
UniProt Q6ICL3: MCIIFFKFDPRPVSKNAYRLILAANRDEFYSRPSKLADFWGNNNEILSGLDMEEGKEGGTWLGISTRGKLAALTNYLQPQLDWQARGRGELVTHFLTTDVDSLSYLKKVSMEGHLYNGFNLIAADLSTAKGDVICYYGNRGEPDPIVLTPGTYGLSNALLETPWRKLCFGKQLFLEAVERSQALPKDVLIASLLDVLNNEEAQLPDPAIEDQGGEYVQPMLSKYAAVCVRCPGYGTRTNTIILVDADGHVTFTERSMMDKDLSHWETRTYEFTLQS
UniProt Q8NHU6: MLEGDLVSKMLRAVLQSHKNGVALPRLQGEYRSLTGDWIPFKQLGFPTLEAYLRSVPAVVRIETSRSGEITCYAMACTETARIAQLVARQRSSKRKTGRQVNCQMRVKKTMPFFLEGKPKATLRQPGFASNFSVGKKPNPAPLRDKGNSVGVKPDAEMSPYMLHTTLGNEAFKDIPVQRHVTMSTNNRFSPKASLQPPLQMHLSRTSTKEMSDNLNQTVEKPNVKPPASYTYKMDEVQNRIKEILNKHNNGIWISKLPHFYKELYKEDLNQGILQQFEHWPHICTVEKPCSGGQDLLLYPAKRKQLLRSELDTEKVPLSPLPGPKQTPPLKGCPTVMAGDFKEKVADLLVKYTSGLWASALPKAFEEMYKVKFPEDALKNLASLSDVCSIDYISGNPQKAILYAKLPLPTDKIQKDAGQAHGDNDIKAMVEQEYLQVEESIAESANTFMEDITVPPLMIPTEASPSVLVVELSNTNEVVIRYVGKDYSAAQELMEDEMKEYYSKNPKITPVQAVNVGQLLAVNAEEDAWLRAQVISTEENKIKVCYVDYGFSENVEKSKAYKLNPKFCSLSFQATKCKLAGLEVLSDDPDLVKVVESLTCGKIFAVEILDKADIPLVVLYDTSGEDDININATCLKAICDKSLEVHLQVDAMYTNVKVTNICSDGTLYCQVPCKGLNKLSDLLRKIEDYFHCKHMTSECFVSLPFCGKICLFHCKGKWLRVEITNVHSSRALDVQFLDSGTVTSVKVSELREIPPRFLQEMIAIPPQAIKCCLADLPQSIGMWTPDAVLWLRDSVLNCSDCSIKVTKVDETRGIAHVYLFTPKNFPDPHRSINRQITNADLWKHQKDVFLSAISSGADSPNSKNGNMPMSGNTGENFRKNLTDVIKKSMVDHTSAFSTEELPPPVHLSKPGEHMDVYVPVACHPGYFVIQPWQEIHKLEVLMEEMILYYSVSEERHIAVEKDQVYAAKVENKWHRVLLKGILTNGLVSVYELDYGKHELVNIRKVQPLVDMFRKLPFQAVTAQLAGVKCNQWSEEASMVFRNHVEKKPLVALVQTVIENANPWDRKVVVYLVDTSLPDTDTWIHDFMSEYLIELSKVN
UniProt O14776: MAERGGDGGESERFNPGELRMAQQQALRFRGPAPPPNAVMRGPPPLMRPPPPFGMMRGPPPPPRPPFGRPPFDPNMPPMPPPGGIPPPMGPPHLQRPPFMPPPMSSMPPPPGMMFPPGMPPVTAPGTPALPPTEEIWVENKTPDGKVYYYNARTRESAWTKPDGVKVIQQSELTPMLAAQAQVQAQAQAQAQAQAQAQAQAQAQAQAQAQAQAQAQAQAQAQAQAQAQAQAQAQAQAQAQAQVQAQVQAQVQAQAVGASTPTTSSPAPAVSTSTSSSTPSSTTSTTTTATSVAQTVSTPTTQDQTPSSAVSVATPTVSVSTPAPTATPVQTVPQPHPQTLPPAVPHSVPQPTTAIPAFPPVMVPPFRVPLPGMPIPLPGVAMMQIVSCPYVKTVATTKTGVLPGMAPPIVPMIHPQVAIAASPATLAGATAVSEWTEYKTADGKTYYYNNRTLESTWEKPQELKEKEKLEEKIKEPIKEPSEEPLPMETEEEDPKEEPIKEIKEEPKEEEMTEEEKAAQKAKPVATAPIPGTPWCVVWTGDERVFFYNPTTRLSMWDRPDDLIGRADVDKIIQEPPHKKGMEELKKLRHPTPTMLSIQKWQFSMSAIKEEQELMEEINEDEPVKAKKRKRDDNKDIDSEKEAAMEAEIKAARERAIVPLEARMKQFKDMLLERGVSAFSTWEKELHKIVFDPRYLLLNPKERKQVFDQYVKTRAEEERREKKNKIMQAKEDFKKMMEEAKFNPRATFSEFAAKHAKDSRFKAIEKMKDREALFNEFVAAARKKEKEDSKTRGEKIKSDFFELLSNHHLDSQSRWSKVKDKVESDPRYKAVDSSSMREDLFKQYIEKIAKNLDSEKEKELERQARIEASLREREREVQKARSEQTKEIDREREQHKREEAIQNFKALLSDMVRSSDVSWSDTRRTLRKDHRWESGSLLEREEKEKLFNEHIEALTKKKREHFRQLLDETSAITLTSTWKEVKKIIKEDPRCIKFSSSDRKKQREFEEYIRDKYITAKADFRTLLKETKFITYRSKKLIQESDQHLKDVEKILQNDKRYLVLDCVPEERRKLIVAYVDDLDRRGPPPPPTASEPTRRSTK
UniProt Q99081: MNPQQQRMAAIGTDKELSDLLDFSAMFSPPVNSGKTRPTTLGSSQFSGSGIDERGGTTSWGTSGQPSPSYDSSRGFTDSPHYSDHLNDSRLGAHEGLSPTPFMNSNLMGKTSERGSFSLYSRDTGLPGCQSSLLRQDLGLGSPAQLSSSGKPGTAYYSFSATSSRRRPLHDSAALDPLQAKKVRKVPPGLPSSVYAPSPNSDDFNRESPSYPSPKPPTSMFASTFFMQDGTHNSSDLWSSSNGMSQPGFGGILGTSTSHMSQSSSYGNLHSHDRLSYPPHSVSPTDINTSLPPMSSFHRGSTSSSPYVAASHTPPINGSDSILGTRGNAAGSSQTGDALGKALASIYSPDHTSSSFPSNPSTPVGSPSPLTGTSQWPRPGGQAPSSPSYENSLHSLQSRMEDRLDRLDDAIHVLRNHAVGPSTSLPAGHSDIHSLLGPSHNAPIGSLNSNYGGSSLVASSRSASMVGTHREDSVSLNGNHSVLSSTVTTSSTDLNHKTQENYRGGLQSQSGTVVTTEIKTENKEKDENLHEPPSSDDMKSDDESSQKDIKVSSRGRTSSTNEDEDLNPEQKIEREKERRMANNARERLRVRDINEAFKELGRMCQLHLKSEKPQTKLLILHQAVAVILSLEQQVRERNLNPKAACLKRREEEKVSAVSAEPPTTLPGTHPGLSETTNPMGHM
UniProt Q9Y2W6: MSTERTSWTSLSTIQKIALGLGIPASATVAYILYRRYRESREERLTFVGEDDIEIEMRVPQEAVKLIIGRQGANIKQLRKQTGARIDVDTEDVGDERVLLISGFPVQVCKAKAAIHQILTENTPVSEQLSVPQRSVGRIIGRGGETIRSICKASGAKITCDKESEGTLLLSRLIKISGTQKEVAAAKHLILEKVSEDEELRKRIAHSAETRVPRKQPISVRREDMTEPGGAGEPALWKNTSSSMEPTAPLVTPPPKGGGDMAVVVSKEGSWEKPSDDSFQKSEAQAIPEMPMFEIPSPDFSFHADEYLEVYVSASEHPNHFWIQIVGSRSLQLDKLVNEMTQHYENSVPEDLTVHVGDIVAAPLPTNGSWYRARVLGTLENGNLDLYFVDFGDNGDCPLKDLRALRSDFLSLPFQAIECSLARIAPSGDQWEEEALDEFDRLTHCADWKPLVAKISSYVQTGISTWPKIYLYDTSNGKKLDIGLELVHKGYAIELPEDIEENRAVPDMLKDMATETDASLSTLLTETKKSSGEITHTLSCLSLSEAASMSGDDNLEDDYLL
UniProt Q8WVM0: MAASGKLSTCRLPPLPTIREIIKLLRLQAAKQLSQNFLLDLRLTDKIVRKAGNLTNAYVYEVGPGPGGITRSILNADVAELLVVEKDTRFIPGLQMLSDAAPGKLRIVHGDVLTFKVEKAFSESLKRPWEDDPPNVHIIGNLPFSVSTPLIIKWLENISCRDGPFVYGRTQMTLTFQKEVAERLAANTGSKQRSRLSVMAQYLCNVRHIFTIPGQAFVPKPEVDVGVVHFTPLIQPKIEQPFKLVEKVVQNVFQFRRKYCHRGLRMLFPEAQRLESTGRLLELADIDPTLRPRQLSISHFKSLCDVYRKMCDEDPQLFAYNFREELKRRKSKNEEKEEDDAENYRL
UniProt Q16594, whole entry, looked up: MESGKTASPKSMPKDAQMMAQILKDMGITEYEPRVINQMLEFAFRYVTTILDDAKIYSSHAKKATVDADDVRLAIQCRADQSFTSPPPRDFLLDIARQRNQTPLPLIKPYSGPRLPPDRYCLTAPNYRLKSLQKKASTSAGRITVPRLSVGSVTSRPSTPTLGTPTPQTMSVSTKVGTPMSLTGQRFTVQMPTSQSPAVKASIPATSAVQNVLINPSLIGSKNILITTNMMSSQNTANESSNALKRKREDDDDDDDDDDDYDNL
UniProt Q5JUR7: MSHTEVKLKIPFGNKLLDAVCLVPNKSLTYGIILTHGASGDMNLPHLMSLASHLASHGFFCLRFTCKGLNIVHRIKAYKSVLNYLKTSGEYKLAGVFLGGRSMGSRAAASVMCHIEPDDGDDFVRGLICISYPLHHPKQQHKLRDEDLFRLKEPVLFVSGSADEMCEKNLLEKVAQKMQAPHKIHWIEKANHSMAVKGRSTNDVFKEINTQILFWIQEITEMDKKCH
UniProt Q12800: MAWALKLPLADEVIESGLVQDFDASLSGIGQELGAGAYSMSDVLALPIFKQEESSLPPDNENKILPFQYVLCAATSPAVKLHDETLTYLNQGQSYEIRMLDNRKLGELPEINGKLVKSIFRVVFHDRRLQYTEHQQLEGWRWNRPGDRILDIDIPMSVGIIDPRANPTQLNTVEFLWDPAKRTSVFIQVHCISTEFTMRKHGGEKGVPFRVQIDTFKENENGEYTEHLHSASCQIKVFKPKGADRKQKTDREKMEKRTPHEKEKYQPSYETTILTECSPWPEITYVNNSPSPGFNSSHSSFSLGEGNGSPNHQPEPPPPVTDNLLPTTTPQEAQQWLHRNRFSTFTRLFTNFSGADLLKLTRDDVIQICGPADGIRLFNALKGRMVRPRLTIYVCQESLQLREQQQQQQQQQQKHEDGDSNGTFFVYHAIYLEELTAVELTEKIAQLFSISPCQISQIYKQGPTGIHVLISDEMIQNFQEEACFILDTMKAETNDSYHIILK
UniProt Q9P0N9: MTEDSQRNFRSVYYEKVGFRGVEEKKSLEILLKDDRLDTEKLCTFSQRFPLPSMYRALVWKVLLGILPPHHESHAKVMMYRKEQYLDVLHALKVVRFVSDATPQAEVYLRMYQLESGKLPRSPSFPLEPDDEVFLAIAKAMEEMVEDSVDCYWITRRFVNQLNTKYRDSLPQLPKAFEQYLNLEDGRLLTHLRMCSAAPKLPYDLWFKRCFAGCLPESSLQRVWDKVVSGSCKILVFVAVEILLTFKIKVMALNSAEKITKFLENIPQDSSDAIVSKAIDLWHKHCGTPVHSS
UniProt Q9HA65: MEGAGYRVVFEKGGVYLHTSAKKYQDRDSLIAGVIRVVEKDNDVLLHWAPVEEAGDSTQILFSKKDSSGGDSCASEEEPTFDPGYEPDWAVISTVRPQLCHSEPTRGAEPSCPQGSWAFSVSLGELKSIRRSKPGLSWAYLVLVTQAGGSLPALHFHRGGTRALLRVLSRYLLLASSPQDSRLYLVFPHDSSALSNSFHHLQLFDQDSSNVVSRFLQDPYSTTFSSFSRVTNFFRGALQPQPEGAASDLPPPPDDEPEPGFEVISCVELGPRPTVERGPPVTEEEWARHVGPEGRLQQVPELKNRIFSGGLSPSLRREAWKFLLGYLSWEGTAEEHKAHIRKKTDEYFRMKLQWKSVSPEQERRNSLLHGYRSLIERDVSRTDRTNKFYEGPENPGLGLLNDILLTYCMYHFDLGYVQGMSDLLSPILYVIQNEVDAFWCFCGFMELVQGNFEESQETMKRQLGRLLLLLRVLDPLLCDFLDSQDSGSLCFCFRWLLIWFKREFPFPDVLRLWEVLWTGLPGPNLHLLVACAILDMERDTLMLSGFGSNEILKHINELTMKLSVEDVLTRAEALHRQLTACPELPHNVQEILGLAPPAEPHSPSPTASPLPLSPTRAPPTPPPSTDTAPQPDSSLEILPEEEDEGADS
UniProt P19532: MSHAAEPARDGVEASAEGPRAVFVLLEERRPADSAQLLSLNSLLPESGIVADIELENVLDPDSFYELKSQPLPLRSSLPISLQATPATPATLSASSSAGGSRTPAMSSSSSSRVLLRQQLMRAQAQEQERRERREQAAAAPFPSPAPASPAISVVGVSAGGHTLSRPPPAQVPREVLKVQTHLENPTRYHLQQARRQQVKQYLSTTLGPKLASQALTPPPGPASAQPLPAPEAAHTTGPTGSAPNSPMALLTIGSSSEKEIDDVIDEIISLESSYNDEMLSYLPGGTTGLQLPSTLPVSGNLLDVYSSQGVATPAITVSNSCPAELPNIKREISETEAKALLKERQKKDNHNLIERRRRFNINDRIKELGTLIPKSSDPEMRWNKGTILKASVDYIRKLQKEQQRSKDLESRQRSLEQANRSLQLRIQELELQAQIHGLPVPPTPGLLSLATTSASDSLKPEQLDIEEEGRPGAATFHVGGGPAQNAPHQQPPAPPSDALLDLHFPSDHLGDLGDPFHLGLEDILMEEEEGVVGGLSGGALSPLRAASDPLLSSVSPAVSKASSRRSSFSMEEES

Experiments:
Test in all cases: log2 fold change, soluble protein after heating vs DMSO (PISA); higher = thermal stabilisation; K562 lysate, 10 uM; active = over 0.2 and 3.5 SD of the protein, either way, in both replicates (recomputed)
vemurafenib = compound: CCCS(=O)(=O)Nc1ccc(F)c(C(=O)c2c[nH]c3ncc(-c4ccc(Cl)cc4)cc23)c1F [vemurafenib]
How it was run: (§1)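 To prepare the extract, K562 pellets were dounce-homogenised in PBS pH 7.4 with 1 mM MgCl2, giving crude material at 1 mg/mL protein. This was treated with 10 μM compound for 30 min, then heated in aliquots for 3 min over 48°C-58°C before pooling and addition of NP-40 to 0.5% at 4°C. Centrifugation at 21,000xg for 90 min left soluble protein in the supernatant, which TMTpro 16plex LC-MS/MS quantified with equalised channel sums. Results are log-two fold changes in thermal stability compared with solvent controls, from duplicates.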

[1] = compound: CCCS(=O)(=O)Nc1ccc(F)c(C(=O)c2c[nH]c3ncc(Cl)cc23)c1F
How it was run: as §1

barasertib = compound: CCN(CCCOc1ccc2c(Nc3cc(CC(=O)Nc4cccc(F)c4)[nH]n3)ncnc2c1)CCOP(=O)(O)O [barasertib]
How it was run: as §1

[2] = compound: CC[C@@H]1C(=O)N(C)c2cnc(Nc3ccc(C(=O)NC4CCN(C)CC4)cc3OC)nc2N1C1CCCC1
How it was run: as §1

volasertib = compound: CC[C@@H]1C(=O)N(C)c2cnc(Nc3ccc(C(=O)N[C@H]4CC[C@H](N5CCN(CC6CC6)CC5)CC4)cc3OC)nc2N1C(C)C [volasertib]
How it was run: as §1

[3] = compound: CCn1c(C(=O)N(C2CC2)C2CC2)cc2c3c(ncn3C)c(Nc3cc(C)n(C)n3)nc21
How it was run: as §1

[4] = compound: CCn1cc(-c2ccnc3[nH]c(-c4cccc(CN(C)C)c4)cc23)c(-c2ccc(NC(=O)N(C)C)cc2)n1
How it was run: as §1

[5] = compound: CN1CCC(CNc2ccc3ncc(-c4cccc(OC(F)(F)F)c4)n3n2)CC1
How it was run: as §1

saracatinib = compound: CN1CCN(CCOc2cc(OC3CCOCC3)c3c(Nc4c(Cl)ccc5c4OCO5)ncnc3c2)CC1 [saracatinib]
How it was run: as §1

sotrastaurin = compound: CN1CCN(c2nc(C3=C(c4c[nH]c5ccccc45)C(=O)NC3=O)c3ccccc3n2)CC1 [sotrastaurin]
How it was run: as §1

Measured: log2 fold change

TANGO2 isoform 4 (UniProt Q6ICL3)
inactive: vemurafenib -0.054 | [1] 0.006 | barasertib -0.093 | [2] -0.061 | volasertib -0.044 | [3] 0.009 | [4] -0.029 | [5] 0.009 | saracatinib 0.007 | sotrastaurin 0.073

TEX10 (UniProt Q9NXF1)
inactive: vemurafenib 0.034 | [1] 0.031 | barasertib -0.117 | [2] 0.004 | volasertib -0.031 | [3] -0.014 | [4] -0.019 | [5] 0.016 | saracatinib -0.022 | sotrastaurin 0.042

TDRD7 (UniProt Q8NHU6)
inactive: vemurafenib 0.02 | [1] -0.035 | barasertib -0.003 | [2] -0.008 | volasertib 0 | [3] 0.027 | [4] -0.031 | [5] 0.009 | saracatinib 0.025 | sotrastaurin 0.013

TAMM41 isoform 3 (UniProt Q96BW9)
inactive: vemurafenib -0.034 | [1] 0.103 | barasertib -0.121 | [2] -0.016 | volasertib -0.092 | [3] 0.069 | [4] 0.064 | [5] -0.009 | saracatinib 0.029 | sotrastaurin 0.009

TFR2 (UniProt Q9UP52)
inactive: vemurafenib 0.003 | [1] 0.015 | barasertib -0.035 | [2] 0.051 | volasertib -0.002 | [3] 0.021 | [4] -0.017 | [5] 0.004 | saracatinib 0.014 | sotrastaurin 0.03

TCOF1 isoform 4 (UniProt Q13428)
inactive: vemurafenib 0.014 | [1] -0.002 | barasertib 0.003 | [2] 0.052 | volasertib 0.013 | [3] -0.023 | [4] -0.09 | [5] 0.023 | saracatinib 0.011 | sotrastaurin 0.027

TAX1BP3 (UniProt O14907)
inactive: vemurafenib -0.015 | [1] -0.138 | barasertib 0.341 | [2] 0.119 | volasertib -0.083 | [3] -0.01 | [4] 0.021 | [5] 0.087 | saracatinib 0.039

TCERG1 (UniProt O14776)
inactive: vemurafenib -0.037 | [1] 0.015 | barasertib 0.012 | [2] 0.016 | volasertib -0.02 | [3] 0.03 | [4] -0.052 | [5] 0.044 | saracatinib 0.03 | sotrastaurin -0.019

TCF12 isoform 3 (UniProt Q99081)
inactive: vemurafenib 0.008 | [1] -0.068 | barasertib -0.037 | [2] 0.034 | volasertib -0.094 | [3] 0.017 | [4] -0.04 | [5] 0.079 | saracatinib 0.043 | sotrastaurin -0.054

TATDN3 isoform 3 (UniProt Q17R31)
inactive: vemurafenib 0.004 | [1] 0.038 | barasertib 0 | [2] 0.003 | volasertib 0.006 | [3] -0.048 | [4] -0.165 | [5] 0.075 | saracatinib 0.067 | sotrastaurin 0.027

TDRKH (UniProt Q9Y2W6)
inactive: vemurafenib 0.07 | [1] 0.055 | barasertib 0.031 | [2] -0.195 | volasertib -0.052 | [3] -0.003 | [4] -0.095 | [5] 0.058 | saracatinib -0.004 | sotrastaurin -0.039

TAGLN2 isoform 2 (UniProt P37802)
inactive: vemurafenib -0.001 | [1] 0 | barasertib 0.099 | [2] 0.039 | volasertib 0.016 | [3] -0.008 | [4] 0.07 | [5] -0.004 | saracatinib 0.009 | sotrastaurin -0.02

TFB1M (UniProt Q8WVM0)
inactive: vemurafenib 0.036 | [1] 0.018 | barasertib -0.052 | [2] -0.048 | volasertib -0.025 | [3] 0.08 | [4] -0.013 | [5] 0.075 | saracatinib 0.029 | sotrastaurin 0.008

TAF9 (UniProt Q16594)
inactive: vemurafenib -0.028 | [1] -0.092 | barasertib -0.001 | [2] -0.031 | volasertib 0.063 | [3] 0.002 | [5] -0.006 | saracatinib 0.056 | sotrastaurin -0.001
active: [4] 0.238

TFRC (UniProt P02786)
inactive: vemurafenib -0.007 | [1] -0.015 | barasertib -0.028 | [2] -0.002 | volasertib 0.024 | [3] -0.012 | [4] -0.023 | [5] 0.051 | saracatinib 0.011 | sotrastaurin 0.003

TBL3 (UniProt Q12788)
inactive: vemurafenib 0.02 | [1] 0.003 | barasertib 0.042 | [2] -0.018 | volasertib -0.006 | [3] 0.004 | [4] -0.005 | [5] -0.012 | saracatinib 0.026 | sotrastaurin 0.009

TBC1D23 (UniProt Q9NUY8)
inactive: vemurafenib -0.003 | [1] 0.011 | barasertib 0 | [2] -0.027 | volasertib -0.029 | [3] -0.012 | [4] -0.058 | [5] 0.023 | saracatinib 0.012 | sotrastaurin 0.017

TEX30 (UniProt Q5JUR7)
inactive: vemurafenib 0.008 | [1] 0.033 | barasertib 0.109 | [2] -0.077 | volasertib -0.051 | [3] 0.005 | [4] -0.301 | [5] 0.088 | saracatinib -0.011 | sotrastaurin -0.023

TBCA (UniProt O75347)
inactive: vemurafenib -0.03 | [1] -0.023 | barasertib -0.009 | [2] -0.054 | volasertib 0.019 | [3] 0.05 | [4] 0.021 | [5] 0.031 | saracatinib -0.07 | sotrastaurin -0.014

TFCP2 (UniProt Q12800)
inactive: vemurafenib 0.023 | [1] 0.049 | barasertib 0.007 | [2] -0.064 | volasertib -0.064 | [3] 0.045 | [4] -0.042 | [5] -0.083 | saracatinib 0.022 | sotrastaurin -0.006

TBC1D7 (UniProt Q9P0N9)
inactive: vemurafenib -0.002 | [1] -0.047 | barasertib 0.048 | [2] 0.013 | volasertib -0.017 | [3] -0.046 | [4] -0.215 | [5] 0.11 | saracatinib 0.032 | sotrastaurin 0.034

TFG (UniProt Q92734)
inactive: vemurafenib 0.011 | [1] -0.001 | barasertib 0.01 | [2] 0.084 | volasertib 0.025 | [3] 0.002 | [4] -0.034 | [5] 0.024 | saracatinib 0.003 | sotrastaurin -0.015

TBC1D2B (UniProt Q9UPU7)
inactive: vemurafenib 0.037 | [1] 0.014 | barasertib 0.001 | [2] 0.012 | volasertib -0.099 | [3] -0.018 | [4] 0.004 | [5] -0.041 | saracatinib 0.033 | sotrastaurin 0.062

TBCE (UniProt Q15813)
inactive: vemurafenib 0.04 | [1] 0.015 | barasertib 0.024 | [2] -0.065 | volasertib -0.082 | [3] 0.048 | [4] -0.044 | [5] -0.023 | saracatinib 0.013 | sotrastaurin 0.001

TBC1D17 (UniProt Q9HA65)
inactive: vemurafenib -0.086 | [1] 0.038 | barasertib 0.007 | [2] -0.114 | volasertib -0.021 | [3] 0 | [4] 0.018 | [5] -0.008 | saracatinib -0.026 | sotrastaurin 0.002

Reprinted from the results shown (five entries):
TANGO2 isoform 4 (UniProt Q6ICL3)
inactive: vemurafenib -0.054 | [1] 0.006 | barasertib -0.093 | [2] -0.061 | volasertib -0.044 | [3] 0.009 | [4] -0.029 | [5] 0.009 | saracatinib 0.007 | sotrastaurin 0.073

TEX10 (UniProt Q9NXF1)
inactive: vemurafenib 0.034 | [1] 0.031 | barasertib -0.117 | [2] 0.004 | volasertib -0.031 | [3] -0.014 | [4] -0.019 | [5] 0.016 | saracatinib -0.022 | sotrastaurin 0.042

TDRD7 (UniProt Q8NHU6)
inactive: vemurafenib 0.02 | [1] -0.035 | barasertib -0.003 | [2] -0.008 | volasertib 0 | [3] 0.027 | [4] -0.031 | [5] 0.009 | saracatinib 0.025 | sotrastaurin 0.013

TAMM41 isoform 3 (UniProt Q96BW9)
inactive: vemurafenib -0.034 | [1] 0.103 | barasertib -0.121 | [2] -0.016 | volasertib -0.092 | [3] 0.069 | [4] 0.064 | [5] -0.009 | saracatinib 0.029 | sotrastaurin 0.009

TFR2 (UniProt Q9UP52)
inactive: vemurafenib 0.003 | [1] 0.015 | barasertib -0.035 | [2] 0.051 | volasertib -0.002 | [3] 0.021 | [4] -0.017 | [5] 0.004 | saracatinib 0.014 | sotrastaurin 0.03

More entries.

TCAF1 (UniProt Q9Y4C2)
inactive: vemurafenib 0.016 | [1] 0.05 | barasertib 0.036 | [2] 0.009 | volasertib -0.049 | [3] 0.003 | [4] 0.097 | [5] -0.077 | saracatinib 0.056 | sotrastaurin 0.011

TFE3 (UniProt P19532)
inactive: vemurafenib -0.106 | [1] 0.012 | barasertib -0.037 | [2] 0.005 | volasertib 0.057 | [3] -0.082 | [4] -0.003 | [5] 0.067 | saracatinib 0.04 | sotrastaurin -0.076
